Test results published in publication PMC6976901 (Toxicology Reports, 2020).

Test: in vitro
Settings: human, Caco-2

Papp: 0.5 ± 0.1 ×10⁻⁶ cm/s
SMILES: CC(C)NCC(O)COc1ccc(CC(N)=O)cc1 (stereo not shown) [atenolol, reference compound]
